# In the supplement of paper PMC3334620:
# Over roughly 33,000 sequences, “E-score (-0.5 to 0.5)” has its median near -0.0034; the highest 2% begin near 0.25. The list shows a part of the results.
# Molecular target: T1, Yap3 (UniProt P38749)
# T1 sequence: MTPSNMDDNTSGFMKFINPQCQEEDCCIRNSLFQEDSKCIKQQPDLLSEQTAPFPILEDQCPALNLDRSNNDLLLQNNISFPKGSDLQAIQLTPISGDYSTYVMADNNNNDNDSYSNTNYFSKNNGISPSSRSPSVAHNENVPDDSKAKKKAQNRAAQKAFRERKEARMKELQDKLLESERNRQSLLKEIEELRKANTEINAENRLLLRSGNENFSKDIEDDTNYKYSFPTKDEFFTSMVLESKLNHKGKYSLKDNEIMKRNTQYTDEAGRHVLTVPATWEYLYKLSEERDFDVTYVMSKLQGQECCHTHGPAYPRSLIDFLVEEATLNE
# Test: PBM E-score (8-mer binding enrichment) (E-score (-0.5 to 0.5)); higher = stronger / more preferred TF binding
# Details: protein concentration: 100 nM; construct: GST-full length
# Outline: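 Full-length yeast transcription factors or their DNA-binding domains, GST-tagged and expressed with PURExpress, were applied at about 100-200 nM to universal all-10-mer Agilent arrays. These arrays had been made double-stranded by primer extension on fresh or once-stripped slides. Detection used fluorescent anti-GST, normalisation used masliner, and E-scores for ungapped eight-base words pooled with reverse complements came from the Universal PBM Analysis Suite.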
row,Sequence,PBM E-score
1,ATGATCCG,-0.0916
2,GTTCCGGA,-0.156
3,CCTGCCAG,-0.25
4,ACGTTCCG,-0.1
5,AGAGGATA,0.0206
6,AGAATAGG,0.172
7,ATGCAGCG,-0.175
8,AAAACGAC,-0.00219
9,AAGTCGGA,0.0731
10,AATCAGAT,0.0727
11,GAAGGAAC,-0.158
12,TGCCGCCA,0.0161
13,GAATTTCC,0.277
14,ATCAGGCC,-0.144
15,GTCATATA,0.163
16,GAGCGCAC,-0.12
17,AGCTCGAG,-0.0903
18,CGTATACG,-0.0611
19,AACTAGAC,0.0874
20,ACAAACTC,-0.00445
21,AAAAATAC,0.14
22,ACCTACGG,-0.301

row,Sequence,PBM E-score
1,CGGAAGAG,-0.0921
2,GGATATGA,0.0846
3,GTGAACTA,0.123
4,CTCTCGAA,0.0266
5,CTCTACCA,-0.0394
6,AGTAGTGA,0.0679
7,AGAGGGAT,-0.218
8,GGCTATCA,-0.0472
9,AGGGAGGG,-0.234
10,CACTCGAA,-0.0436
11,AAGAGTTG,0.0294
12,AGTATGCA,-0.0365
13,GCGGACAA,0.196
14,CAGTCTTC,-0.0179
15,AAGTGAAT,0.245
16,TAGTTACA,-0.0858
17,CAGAGGCG,-0.136
18,ACCAATCG,0.223
19,GTTCCAAC,-0.00516
20,ACTCGCTG,-0.114
21,ACCTCAGG,-0.227
22,AGAATGAC,0.0866

row,Sequence,PBM E-score
1,CTCGCCAG,-0.151
2,CACCCGGC,-0.411
3,GTCCGGAC,0.0517
4,CCCCGTCG,-0.309
5,AGACACAT,-0.079
6,AAAAGAAC,0.136
7,CTCGATAA,0.0958
8,ATAAAGGA,-0.117
9,GCACAGAC,0.00931
10,CGAAGGTA,0.00763
11,GTAGCTGA,-0.0966
12,ACATTTGG,-0.00729
13,CTGGTTGA,-0.256
14,GGAAGCTA,-0.0915
15,AGTCCGGA,-0.0488
16,AGTAGCGA,0.0288
17,CCAATAAA,0.218
18,GACCTGTA,-0.0803
19,AAAATAAT,0.224
20,CGGTATGC,-0.17
21,CAGTATGA,0.143
22,ACGGCATG,0.0157

# Reprinted at random: 5 records from the list
row,Sequence,PBM E-score
7,CTCGATAA,0.0958
4,CCCCGTCG,-0.309
13,CTGGTTGA,-0.256
21,CAGTATGA,0.143
9,GCACAGAC,0.00931

# Next part:

row,Sequence,PBM E-score
1,AGACACAG,-0.148
2,CACCACGA,0.0157
3,GTTAACCA,0.145
4,CACAGTAA,0.265
5,GCCCGCCC,-0.3
6,CTTTAAGA,0.0783
7,GAGCGACA,0.0223
8,GCTGAGCA,-0.07
9,GAAAGTGC,-0.131
10,ATGTGACG,-0.0689
11,ACCGTTCA,-0.0456
12,ATGGGTGG,-0.0448
13,ACGCAGAC,-0.0392
14,ACTCACAT,0.0827
15,ATTATTCC,0.248
16,GTGCAAGA,0.152
17,ACAAGTAA,0.0548
18,CGCCAGAC,-0.126
19,CAGACTCC,-0.222
20,CTTTATAC,0.114
